# PubChem BioAssay (NCATS)
# By UniProt entry, the sequences of proteins in these tests, tags left out. Where a name states a change or a piece, a line headed by the entry shows the natural chain unless it says otherwise.
# UniProt P21964: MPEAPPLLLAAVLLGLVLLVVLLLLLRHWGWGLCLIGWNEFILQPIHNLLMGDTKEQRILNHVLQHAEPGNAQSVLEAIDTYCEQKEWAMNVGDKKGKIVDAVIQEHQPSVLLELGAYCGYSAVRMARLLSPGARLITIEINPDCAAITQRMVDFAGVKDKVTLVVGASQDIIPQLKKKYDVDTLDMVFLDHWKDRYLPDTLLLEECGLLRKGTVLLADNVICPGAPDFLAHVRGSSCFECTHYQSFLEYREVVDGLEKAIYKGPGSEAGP
# Values joined by “and” are separate entries in the source; they are usually repeats but may differ in a detail not shown here. Equal entries are not always repeated. The list shows a part of the results. Further columns of the screen follow, without active or inactive calls. The list favours compounds with an active or inconclusive main result. For some assays here: Potencies come from curve fits of mixed quality, noted in brackets.
# What was measured:
# [1] = Validation of Assay for Modulators of Lamin A Splicing (AID 1459); conditions: Lamin A splicing dual RFP/GFP fluorescence reporter, ratio
# Summary of the method: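 Splicing correction is reported by an EGFP-containing lamin A minigene in stably transfected S3 HeLa cells, while DsRed2 controls for viability and nonspecific signal. Cells are exposed to compounds for 48 hrs before the GFP over RFP ratio is taken.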
# [2] = qHTS Assay for Lipid Storage Modulators (AID 1519); conditions: Drosophila S3 cells, BODIPY lipid droplet/cell ratio, laser cytometry, cells loaded with oleic acid
# Summary of the method: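 Cells seeded at 5,000 per well were treated with compounds over a concentration series and loaded with oleic acid (400 uM, as added). Lipid droplet fluorescence (488 nm excitation, 500-530 nm channel) was read by laser-scanning cytometry and normalized to 20 uM Triacsin C.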
# [3] = qHTS Assay for Modulators of Human Peripheral Myelin Protein 22 (PMP22) Expression/Activity (AID 1967); conditions: Cell-based PMP22 reporter, dual-color luciferase ratio
# Summary of the method: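 Quantitative HTS in a mouse Schwann cell line expressing dual click beetle luciferases: Pmp22 promoter (green) and control EF-alpha promoter (red). After 24h treatment, corrected green/red signal ratio gave %Activity relative to untreated cells.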
# [4] = qHTS for identification of novel therapeutic agents for treatment of microphthalmiaassociated transcription factor (MiT) renal cell carcinoma (RCC) (AID 1963991); conditions: CellTiter-Glo, 48 h; for z-score: stronger effect = lower value
# Summary of the method: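 Curves over 11 concentrations were fitted to CellTiter-Glo luminescence, scaled between empty wells (0%) and DMSO (100%) viability. Cells were UOK109, UOK124 and UOK145 TFE3-fusion RCC lines at 500/well, exposed 48 hours at 37 C.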
# [5] = qHTS Assay for Inhibitors of PDE-IV (AID 607); conditions: HEK293 ACTOne CNG channel cells, membrane potential fluorescence; measured here: parental cell counter-screen
# Summary of the method: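 Cell-based read-out of cAMP via a modified cyclic nucleotide-gated channel and membrane potential dye (535/590 nm) in HEK293 cells expressing PDE4 endogenously. Compounds tested up to 22.9 uM final; 100 uM RO 20-1724 reference.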
# [6] = qHTS assay for small molecule antagonists of peroxisome proliferator-activated receptor delta signaling (AID 588535); conditions: HEK293T PPARd-UAS-bla, beta-lactamase FRET ratio, 18 h; 460 nm channel;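 also: cells co-treated with a PPAR-delta agonist as stimulator during compound exposure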
# Summary of the method: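 Antagonist-mode qHTS using GeneBLAzer PPAR-delta-UAS-bla HEK293T cells; compound exposure 18 hrs at 37 C over a titration. Ratiometric CCF4 fluorescence at 460/530 nm; concentration-response points fitted to the Hill equation.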
# [7] = qHTS assay for small molecule agonists of retinoid X receptor alpha signaling (AID 588544); conditions: HEK293T RXRa-UAS-bla, beta-lactamase reporter, 18 h; 530 nm emission
# [8] = qHTS assay for small molecule antagonists of retinoid X receptor alpha signaling (AID 588546); conditions: HEK293T RXRa-UAS-bla, beta-lactamase ratio, antagonist mode; measured here: W530 green channel, cytotoxicity proxy;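 also: cells stimulated with 9-cis-retinoic acid as agonist; % is scaled to controls: 0 for no effect and ±100 for the full control effect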
# Summary of the method: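 Beta-lactamase reporter inhibition, read as CCF4 fluorescence ratio (ex 405, em 460/530 nm) after 2 h at RT. HEK293T UAS-bla cells, 2500/well, were stimulated with 9-cis-RA at 500 or 100 nM final alongside test compound for 18 h at 37 C.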
# [9] = S16 Schwann cell PMP22 intronic element beta-lactamase assay (AID 624044); conditions: S16 rat Schwann cells, PMP22 element beta-lactamase FRET, 24 h; measured here: 460 nm blue channel
# Summary of the method: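 Beta-lactamase reporter under a PMP22 intronic regulatory element in stable S16 rat Schwann cells; 24 h compound exposure. 460 nm blue signal normalized between DMSO (0%) and potassium clavulanate, with 535 nm FRET tracking viability; curves classed by r2 and response.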
# [10] = qHTS Validation Assay to Find Inhibitors of Chronic Active B-Cell Receptor Signaling (AID 485345); conditions: ABC-DLBCL cells, chronic BCR signaling reporter
# Summary of the method: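 Read-out: ratio of filter-corrected green (IkappaBalpha fusion) to red (native) luciferase signal in doxycycline-induced TMD8 cells after 4 h at 37C. Titration spanned 46 uM–3 nM; Data were normalised to basal cells and 10 uM MG-132 wells.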
# [11] = biological target: Catechol O-methyltransferase (Homo sapiens) (UniProt P21964); test: Confirmatory Screen for Target Class Profiling of Small Molecule Inhibitors of Methyltransferases (AID 1745852); conditions: MTase-Glo luminescence, SAH detection, recombinant enzyme; measured here: COMT inhibition potency
# [12] = measured here: cell count channel max response
# [13] = measured here: cell number channel AC50
# [14] = measured here: lipid (BODIPY) channel AC50
# [15] = measured here: lipid channel max response
# [16] = measured here: green reporter channel AC50, mouse Pmp22 promoter in mouse Schwann cells
# [17] = measured here: red reporter channel AC50, EF-alpha promoter control reporter in MSC80 mouse Schwann cells
# [18] = measured here: CBR control luciferase (viability counter)
smiles,measurement,setting,value
O=C1NC(=O)C(c2ccccc2[N+](=O)[O-])=C1Nc1ccc(O)c(Cl)c1,AC50,[1]; measured here: GFP channel,"14.1 µM [rising, partial curve, poor fit]"
same,max response,[2]; [12],44.7%
same,AC50,[2]; [13],"15.8 µM [rising, full curve, poor fit]"
same,AC50,[2]; [14],"20 µM [rising, partial curve, poor fit]"
same,max response,[2]; [15],70.3%
same,AC50,[3]; [16],"33.8 µM [falling, partial curve, poor fit]"
same,AC50,[3]; [17],"60.1 µM [falling, partial curve, poor fit]"
same,z-score,"[4]; TFE3-RCC UOK109 viability, measured here: UOK109 Z-AUC",-0.627
same,z-score,"[4]; TFE3-RCC viability, measured here: UOK124 Z-AUC",0.456
same,z-score,"[4]; TFE3-RCC viability, measured here: UOK145 Z-AUC",-0.739
same,AC50,"[4]; TFE3-RCC viability, measured here: UOK145 cell viability","1.66 µM [falling, partial curve, poor fit]"
CCCCCCCC/C=C\CCCCCCCC(=O)NCCO,AC50,[1]; measured here: GFP channel,"31.6 µM [rising, single point]"
same,max response,[2]; [12],56%
same,AC50,[2]; [13],"39.8 µM [rising, partial curve, poor fit]"
same,AC50,[2]; [14],"35.5 µM [rising, partial curve, poor fit]"
same,max response,[2]; [15],57.5%
same,AC50,[3]; [16],"95.3 µM [falling, single point]"
CCCN(CC1CC1)c1nc(C)nc(Nc2c(Cl)cc(Cl)cc2Cl)c1Cl,AC50,[5],"20 µM [rising, single point]"
same,AC50,[1]; measured here: GFP channel,"35.5 µM [rising, single point]"
same,max response,[2]; [12],69.6%
same,AC50,[2]; [13],"3.16 µM [rising, full curve]"
same,AC50,[2]; [14],"3.16 µM [rising, full curve]"
same,max response,[2]; [15],95.8%
same,AC50,[3]; [16],"84.9 µM [falling, single point]"
same,AC50,[3]; [17],"95.3 µM [falling, single point]"
Oc1ccc(O)cc1,AC50,[1]; measured here: GFP channel,"35.5 µM [falling, single point]"
same,AC50,[1]; measured here: RFP channel,"11.2 µM [falling, partial curve]"
same,max response,[6],-130%
same,max response,[7],35.7%
same,max response,[8],35.8%
same,AC50,[9],"17.8 µM [falling, partial curve]"
CC(C)[N+](C)(CCOC(=O)C1c2ccccc2Oc2ccccc21)C(C)C,AC50,[1]; measured here: GFP channel,"22.4 µM [rising, single point]"
same,max response,[2]; [12],33% and 32.5%
same,AC50,[2]; [13],"39.8 µM [rising, single point]"
same,AC50,[2]; [14],"39.8 µM [rising, single point]"
same,max response,[2]; [15],55.4% and 32.7%
same,AC50,[3]; [16],"5.36 µM [rising, full curve, poor fit]"
O=S(=O)(O)C1CCNCC1,AC50,[1]; measured here: GFP channel,"35.5 µM [rising, single point]"
same,max response,[2]; [12],36.2%
same,AC50,[2]; [13],"39.8 µM [rising, single point]"
same,AC50,[2]; [14],"39.8 µM [rising, single point]"
same,max response,[2]; [15],38.4%
Oc1cc2c(cc1O)CN(C(=S)NCCc1ccc(Cl)cc1)CCC2,AC50,[1]; measured here: RFP channel,"7.08 µM [falling, partial curve, poor fit]"
same,max response,[2]; [12],68% and 59.7%
same,AC50,[2]; [13],"14.1 µM [rising, partial curve, poor fit] and 35.5 µM [rising, single point]"
same,AC50,[2]; [14],"12.6 µM [rising, partial curve, poor fit] and 35.5 µM [rising, partial curve, poor fit]"
same,max response,[2]; [15],82.2% and 60.4%
same,AC50,[3]; [16],"84.9 µM [falling, single point]"
same,AC50,[10]; [18],"11.6 µM [falling, partial curve]"
same,IC50,[11],"2.43 µM [rising, full curve]"
NCCNS(=O)(=O)c1cccc2cnccc12,AC50,[1]; measured here: RFP channel,"14.1 µM [falling, single point]"
same,max response,[2]; [12],30.3% and 43.1%
same,AC50,[2]; [13],"15.8 µM [rising, full curve, poor fit] and 39.8 µM [rising, single point]"
same,AC50,[2]; [14],"20 µM [rising, partial curve, poor fit] and 39.8 µM [rising, single point]"
same,max response,[2]; [15],46.1% and 45.7%
same,AC50,[3]; [16],"37.9 µM [rising, single point]"
CCCC1O[C@@H]2C[C@H]3[C@@H]4CCC5=CC(=O)C=C[C@]5(C)C4[C@@H](O)C[C@]3(C)[C@]2(C(=O)CO)O1 (some centres undefined),AC50,[1]; measured here: GFP channel,"6.31 µM [rising, partial curve]"
same,AC50,[1]; measured here: RFP channel,"12.6 µM [rising, single point]"
same,AC50,[3]; [16],"60.1 µM [falling, partial curve, poor fit]"
same,AC50,[3]; [17],"75.7 µM [falling, partial curve, poor fit]"
CCOC(=O)C1=C(C)NC(C)=C(C(=O)OC)C1c1cccc(Cl)c1Cl (centres undefined),AC50,[1]; measured here: GFP channel,"35.5 µM [falling, single point]"
same,AC50,[1]; measured here: RFP channel,"35.5 µM [falling, single point]"
same,AC50,[3]; [16],"37.9 µM [falling, partial curve]"
same,AC50,[3]; [17],"23.9 µM [falling, full curve]"
c1cc(CN2CCCCC2)cc(OCCCNc2nc3ccccc3s2)c1,AC50,[5],"25.1 µM [rising, single point]"
same,AC50,[1]; measured here: RFP channel,"2.51 µM [falling, partial curve]"
same,max response,[2]; [12],63.6%
same,AC50,[2]; [13],"35.5 µM [rising, partial curve, poor fit]"
same,AC50,[2]; [14],"39.8 µM [rising, partial curve, poor fit]"
same,max response,[2]; [15],74.6%
same,AC50,[3]; [16],"30.1 µM [falling, partial curve]"
same,AC50,[3]; [17],"30.1 µM [falling, partial curve]"
same,AC50,[10]; measured here: CBG/CBR ratio read-out,"23.1 µM [falling, single point]"
same,AC50,[10]; [18],"20.6 µM [falling, single point]"

# In a second layout: entries from further up.
smiles | measurement | setting | value
CCCCCCCC/C=C\CCCCCCCC(=O)NCCO | AC50 | [3]; [16] | 95.3 µM [falling, single point]
CCCN(CC1CC1)c1nc(C)nc(Nc2c(Cl)cc(Cl)cc2Cl)c1Cl | AC50 | [5] | 20 µM [rising, single point]
same | AC50 | [1]; measured here: GFP channel | 35.5 µM [rising, single point]
